Experimental data taken from US20220307159.

Tested on: eIF3 complex (detected via eIF3b) (Homo sapiens)
Experiment: pull-down
Conditions: HEK293FT lysate, 4 C 12 h, anti-eIF3b detection (Wes); low-ranked RNA; protein in an extract; protein details: endogenous, HEK293FT cell lysate; label: 3' biotin on DNA barcode strand

GGAUACUAGCGCGGCUGUGAGUCUGGGGUGUACGAGCAGGUGUUUGGACUAACCUGCUCGUGCACC / CCAGACTCACAGCCGCGCTAGTATCCAAG [Rank8531_Pulldown_RNA_Probe]
binding result: no binding

For at least one entry, the source does not settle the construct or the ends of the probe. Where cells or extracts were used, other partners may take part. No signal at the amounts used counts as a negative.
